Results are given in words; binding and its absence hold for the method and conditions named. Binding seen in cells or lysates may run through a third protein. Some results given as binding are weak or reduced against the parent protein; the word gives no strength.

By UniProt entry, the sequences of proteins in these tests, tags left out.
UniProt Q15311: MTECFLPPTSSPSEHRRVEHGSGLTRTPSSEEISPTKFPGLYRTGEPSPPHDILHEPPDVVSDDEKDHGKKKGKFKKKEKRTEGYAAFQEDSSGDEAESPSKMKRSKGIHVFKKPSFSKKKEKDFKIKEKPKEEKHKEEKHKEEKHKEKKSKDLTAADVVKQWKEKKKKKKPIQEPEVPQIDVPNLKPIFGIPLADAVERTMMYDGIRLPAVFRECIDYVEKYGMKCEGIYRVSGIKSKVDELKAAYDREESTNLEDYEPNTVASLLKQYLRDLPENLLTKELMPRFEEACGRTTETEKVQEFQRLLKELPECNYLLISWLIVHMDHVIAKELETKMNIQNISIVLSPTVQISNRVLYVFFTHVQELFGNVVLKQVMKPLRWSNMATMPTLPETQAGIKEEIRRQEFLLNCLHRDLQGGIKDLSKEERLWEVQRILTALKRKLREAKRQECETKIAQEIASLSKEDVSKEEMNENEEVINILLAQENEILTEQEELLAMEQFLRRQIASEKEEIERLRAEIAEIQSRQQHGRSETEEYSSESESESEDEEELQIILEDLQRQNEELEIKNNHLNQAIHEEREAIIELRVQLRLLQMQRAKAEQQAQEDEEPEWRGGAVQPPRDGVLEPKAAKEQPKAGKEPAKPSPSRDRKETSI

Our source for the binding values is paper PMC7072578.

This assay deals with RalA-binding protein 1 (human (endogenous in OVCAR8 and DOV13)) (UniProt Q15311). The experiment in a line: co-IP; lysates of OVCAR8 and DOV13 cells (IP lysis buffer); anti-RALBP1 (clone 2A1) or anti-REPS1 (clone D6F4) on Dynabeads protein G, 1 mg of cell lysate overnight at 4 °C, washed three times with PBS; Western blot.

B1: RalBP1-associated Eps domain-containing protein 1 (protein, UniProt Q96D71 1-796)
chain: MEGLTLSDAEQKYYSDLFSYCDIESTKKVVVNGRVLELFRAAQLPNDVVLQIMELCGATRLGYFGRSQFYIALKLVAVAQSGFPLRVESINTVKDLPLPRFVASKNEQESRHAASYSSDSENQGSYSGVIPPPPGRGQVKKGSVSHDTVQPRTSADAQEPASPVVSPQQSPPTSPHTWRKHSRHPSGGNSERPLAGPGPFWSPFGEAQSGSSAGDAVWSGHSPPPPQENWVSFADTPPTSTLLTMHPASVQDQTTVRTVASATTAIEIRRQSSSYDDPWKITDEQRQYYVNQFKTIQPDLNGFIPGSAAKEFFTKSKLPILELSHIWELSDFDKDGALTLDEFCAAFHLVVARKNGYDLPEKLPESLMPKLIDLEDSADVGDQPGEVGYSGSPAEAPPSKSPSMPSLNQTWPELNQSSEQWETFSERSSSSQTLTQFDSNIAPADPDTAIVHPVPIRMTPSKIHMQEMELKRTGSDHTNPTSPLLVKPSDLLEENKINSSVKFASGNTVADGYSSSDSFTSDPEQIGSNVTRQRSHSGTSPDNTAPPPPPPRPQPSHSRSSSLDMNRTFTVTTGQQQAGVVAHPPAVPPRPQPSQAPGPAVHRPVDADGLITHTSTSPQQIPEQPNFADFSQFEVFAASNVNDEQDDEAEKHPEVLPAEKASDPASSLRVAKTDSKTEEKTAASAPANVSKGTTPLAPPPKPVRRRLKSEDELRPEVDEHTQKTGVLAAVLASQPSIPRSVGKDKKAIQASIRRNKETNTVLARLNSELQQQLKDVLEERISLEVQLEQLRPFSHL
On to B1, for which the binding result was “binds”.
